# Substitutions are numbered along the chain they refer to. Names and notes keep the numbering of the source. These are yes or no findings as the source states them, for the method shown.
# B1: VH3/VK2 humanized anti-tau antibody (antibody, human IgG4 S228P, kappa, V domains shown)
# VH: EVQVVESGGGLVQPGGSLKLSCVVSGFTFSNYWVNWVRQAPGKGLEWVAQIRLKSDNYATHYEESVKGRFTISRDDSKNSVYLQMNSLRAEDTAIYYCTNWEDYWGQGTTVTVSS
# VL: DIVLTQSPDSLAVSLGERATISCRASQSVSTSRYSYIHWYQQKPGQPPKLLIKYASNLESGVPSRFSGSGSGTDFTLNIHPLEPEDFATYYCHHSWEIPLTFGQGTKLEIKR
# B2: VH2/VK2 humanized anti-tau antibody (antibody, human IgG4 S228P, kappa, V domains shown)
# VH: B1 VH with Q3K, N79S, A94G
# VL: B1 VL
# B3: chimeric HJ8.5 monoclonal antibody (antibody, V domains shown)
# VH: B1 VH with Q3K, V5E, L18M, A40S, G42E, N79S, S87N, T93S, A94G, V111L
# VL: DIVLTQSPASLAVSLGQRATISCRASQSVSTSRYSYIHWYQQKPGQPPKLLIKYASNLESGVPARFSGSGSGTDFTLNIHPLEEEDAATYYCHHSWEIPLTFGAGTKLELK
# B4: VH1/VK2 humanized anti-tau antibody (C2N-8E12) (antibody, human IgG4 S228P, kappa, V domains shown)
# VH: B1 VH with Q3K, L18M, N79S, S87N, T93S, A94G
# VL: B1 VL
# Biological target: Wild-Type Mouse (brain tissue) (Mus musculus)
# Assay: immunostaining of brain sections
row,binding,Binder
1,no binding,B1
2,no binding,B2
3,no binding,B3
4,no binding,B4

# Reference: patent US20180371066A1
